In the supplement of paper PMC4604168 (melanoma cell lines):
Some of the results follow. Single values are uncertain, as repeats are few or missing.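 The apoptosis fraction was the count of cleaved-PARP antibody-stained nuclei relative to all DNA-stained nuclei, imaged in 1,536-well plates. Screening doses were set so most cells survived, and baseline and induced cleaved-PARP levels vary greatly across cell lines.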

How the values were obtained:
Test in all cases: cleaved PARP positive nuclei fraction relative to DMSO control; melanoma cells; higher = more apoptosis
Conditions in all cases: library dose: low library concentration; 72 h
[1] = test system: WM115
[2] = test system: WM1716
[3] = test system: WM1745
[4] = test system: WM3526
[5] = test system: WM3619
[6] = test system: WM451Lu

Compound: Cc1nc(Nc2ncc(C(=O)Nc3c(C)cccc3Cl)s2)cc(N2CCN(CCO)CC2)n1 [dasatanib] + Cn1cncc1[C@@](N)(c1ccc(Cl)cc1)c1ccc2c(c1)c(-c1cccc(Cl)c1)cc(=O)n2C [tipifarnib] (first compound 0.004 µM, partner dose 0.01 µM)
- cleaved PARP positive nuclei fraction [1]: 289%
- cleaved PARP positive nuclei fraction [2]: 200%
- cleaved PARP positive nuclei fraction [3]: 125%
- cleaved PARP positive nuclei fraction [4]: 75.4%
- cleaved PARP positive nuclei fraction [5]: 116%
- cleaved PARP positive nuclei fraction [6]: 122%

Compound: NC(=O)Nc1cc(-c2cccc(F)c2)sc1C(=O)N[C@H]1CCCNC1 + Oc1nc(-c2ccc(C(F)(F)F)cc2)nc2c1CSCC2 [XAV939] (first compound 0.02 µM, partner dose 2 µM)
- cleaved PARP positive nuclei fraction [1]: 123%
- cleaved PARP positive nuclei fraction [2]: 109%
- cleaved PARP positive nuclei fraction [3]: 192%
- cleaved PARP positive nuclei fraction [4]: 367%
- cleaved PARP positive nuclei fraction [5]: 184%
- cleaved PARP positive nuclei fraction [6]: 87.5%

Compound: CC(=O)c1c(C)c2cnc(Nc3ccc(N4CCNCC4)cn3)nc2n(C2CCCC2)c1=O [palbociclib] + CCCCCCCCCCCC1=C(O)C(=O)C=C(O)C1=O [Embelin] (first compound 0.04 µM, partner dose 1.2 µM)
- cleaved PARP positive nuclei fraction [1]: 68.4%
- cleaved PARP positive nuclei fraction [2]: 82.5%
- cleaved PARP positive nuclei fraction [3]: 145%
- cleaved PARP positive nuclei fraction [4]: 105%
- cleaved PARP positive nuclei fraction [5]: 138%
- cleaved PARP positive nuclei fraction [6]: 159%

Compound: Clc1ccc(Nc2nnc(Cc3ccncc3)c3ccccc23)cc1 [vatalanib] + CCc1ccc(CCOc2ccc(CC3SC(=O)NC3=O)cc2)nc1 [pioglitazone] (first compound 2 µM, partner dose 2 µM)
- cleaved PARP positive nuclei fraction [1]: 114%
- cleaved PARP positive nuclei fraction [2]: 70.5%
- cleaved PARP positive nuclei fraction [3]: 86.2%
- cleaved PARP positive nuclei fraction [4]: 185%
- cleaved PARP positive nuclei fraction [5]: 129%
- cleaved PARP positive nuclei fraction [6]: 126%

Compound: Cn1nnc2c(C(N)=O)ncn2c1=O [temozolomide] + CN(C)S(=O)(=O)c1ccc2c(c1)/C(=C/c1cc3c([nH]1)CCCC3)C(=O)N2 [SU6656] (first compound 2 µM, partner dose 0.4 µM)
- cleaved PARP positive nuclei fraction [1]: 297%
- cleaved PARP positive nuclei fraction [2]: 55%
- cleaved PARP positive nuclei fraction [3]: 97.9%
- cleaved PARP positive nuclei fraction [4]: 113%
- cleaved PARP positive nuclei fraction [5]: 100%
- cleaved PARP positive nuclei fraction [6]: 110%

Compound: C=CCNC1=C2C[C@@H](C)C[C@H](OC)[C@H](O)[C@@H](C)/C=C(\C)[C@H](OC(N)=O)[C@@H](OC)/C=C\C=C(/C)C(=O)NC(=CC1=O)C2=O [Tanespimycin] + Oc1cc(-c2nc(-c3ccccc3)[nH]c2-c2ccncc2)ccc1Cl [L779450] (first compound 0.002 µM, partner dose 0.2 µM)
- cleaved PARP positive nuclei fraction [1]: 104%
- cleaved PARP positive nuclei fraction [2]: 91.8%
- cleaved PARP positive nuclei fraction [3]: 113%
- cleaved PARP positive nuclei fraction [4]: 84.6%
- cleaved PARP positive nuclei fraction [5]: 100%
- cleaved PARP positive nuclei fraction [6]: 35.7%

Compound: Cc1nc(Nc2ncc(C(=O)Nc3c(C)cccc3Cl)s2)cc(N2CCN(CCO)CC2)n1 [dasatanib] + O=C(Nc1ccccc1)c1cc([N+](=O)[O-])ccc1Cl [GW9662] (first compound 0.004 µM, partner dose 2 µM)
- cleaved PARP positive nuclei fraction [1]: 326%
- cleaved PARP positive nuclei fraction [2]: 226%
- cleaved PARP positive nuclei fraction [3]: 146%
- cleaved PARP positive nuclei fraction [4]: 65.9%
- cleaved PARP positive nuclei fraction [5]: 82.6%
- cleaved PARP positive nuclei fraction [6]: 347%

Compound: Nc1cccc2c1CN(C1CCC(=O)NC1=O)C2=O (stereo not drawn) [lenalidomide] + c1cc(-c2cnn3cc(-c4ccc(OCCN5CCCCC5)cc4)cnc23)ccn1 [Dorsomorphin] (first compound 1 µM, partner dose 0.4 µM)
- cleaved PARP positive nuclei fraction [1]: 73.9%
- cleaved PARP positive nuclei fraction [2]: 47.6%
- cleaved PARP positive nuclei fraction [3]: 105%
- cleaved PARP positive nuclei fraction [4]: 120%
- cleaved PARP positive nuclei fraction [5]: 70.7%
- cleaved PARP positive nuclei fraction [6]: 55.8%

Compound: Cc1nc(Nc2ncc(C(=O)Nc3c(C)cccc3Cl)s2)cc(N2CCN(CCO)CC2)n1 [dasatanib] + O=C1NC(=O)/C(=C/c2ccc(-c3ccc(F)cc3O)o2)S1 [AS252424] (first compound 0.004 µM, partner dose 1 µM)
- cleaved PARP positive nuclei fraction [1]: 98.3%
- cleaved PARP positive nuclei fraction [2]: 256%
- cleaved PARP positive nuclei fraction [3]: 243%
- cleaved PARP positive nuclei fraction [4]: 62.3%
- cleaved PARP positive nuclei fraction [5]: 88.7%
- cleaved PARP positive nuclei fraction [6]: 35.1%

Compound: Nc1cccc2c1CN(C1CCC(=O)NC1=O)C2=O (stereo not drawn) [lenalidomide] + COC(=O)c1sccc1S(=O)(=O)Nc1ccc(Nc2ccccc2)cc1OC [GSK0660] (first compound 1 µM, partner dose 1 µM)
- cleaved PARP positive nuclei fraction [1]: 199%
- cleaved PARP positive nuclei fraction [2]: 72.5%
- cleaved PARP positive nuclei fraction [3]: 93.4%
- cleaved PARP positive nuclei fraction [4]: 29.7%
- cleaved PARP positive nuclei fraction [5]: 55.3%
- cleaved PARP positive nuclei fraction [6]: 31.3%

Compound: C[C@@H]1CCN(C(=O)CC#N)C[C@@H]1N(C)c1ncnc2[nH]ccc12 + COc1cc2ncnc(Nc3ccc(Oc4ccccc4)cc3)c2cc1OC [SrcI1] (first compound 1 µM, partner dose 2 µM)
- cleaved PARP positive nuclei fraction [1]: 61.9%
- cleaved PARP positive nuclei fraction [2]: 109%
- cleaved PARP positive nuclei fraction [3]: 116%
- cleaved PARP positive nuclei fraction [4]: 52.6%
- cleaved PARP positive nuclei fraction [5]: 73.6%
- cleaved PARP positive nuclei fraction [6]: 109%

Compound: Cc1nc(Nc2ncc(C(=O)Nc3c(C)cccc3Cl)s2)cc(N2CCN(CCO)CC2)n1 [dasatanib] + CN(NC(=O)CC(=O)NN(C)C(=S)c1ccccc1)C(=S)c1ccccc1 [STA4783] (first compound 0.004 µM, partner dose 0.006 µM)
- cleaved PARP positive nuclei fraction [1]: 250%
- cleaved PARP positive nuclei fraction [2]: 192%
- cleaved PARP positive nuclei fraction [3]: 246%
- cleaved PARP positive nuclei fraction [4]: 132%
- cleaved PARP positive nuclei fraction [5]: 159%
- cleaved PARP positive nuclei fraction [6]: 242%

Compound: OCc1c[nH]c2ccccc12 [Indole-3-carbinol] + COc1ccc(COc2ccc(Cc3cnc(N)nc3N)cc2OC)cc1 [GW2580] (first compound 0.8 µM, partner dose 1 µM)
- cleaved PARP positive nuclei fraction [1]: 205%
- cleaved PARP positive nuclei fraction [2]: 211%
- cleaved PARP positive nuclei fraction [3]: 81.3%
- cleaved PARP positive nuclei fraction [4]: 64.2%
- cleaved PARP positive nuclei fraction [5]: 86.9%
- cleaved PARP positive nuclei fraction [6]: 36%

Compound: OCc1c[nH]c2ccccc12 [Indole-3-carbinol] + CN(NC(=O)CC(=O)NN(C)C(=S)c1ccccc1)C(=S)c1ccccc1 [STA4783] (first compound 0.8 µM, partner dose 0.006 µM)
- cleaved PARP positive nuclei fraction [1]: 146%
- cleaved PARP positive nuclei fraction [2]: 219%
- cleaved PARP positive nuclei fraction [3]: 180%
- cleaved PARP positive nuclei fraction [4]: 75.6%
- cleaved PARP positive nuclei fraction [5]: 144%
- cleaved PARP positive nuclei fraction [6]: 66.4%

Compound: NC(=O)Nc1cc(-c2cccc(F)c2)sc1C(=O)N[C@H]1CCCNC1 + CCN(CC)CCCCNc1ncc2cc(-c3cc(OC)cc(OC)c3)c(NC(=O)NC(C)(C)C)nc2n1 [PD173074] (first compound 0.02 µM, partner dose 0.1 µM)
- cleaved PARP positive nuclei fraction [1]: 139%
- cleaved PARP positive nuclei fraction [2]: 57.3%
- cleaved PARP positive nuclei fraction [3]: 101%
- cleaved PARP positive nuclei fraction [4]: 100%
- cleaved PARP positive nuclei fraction [5]: 371%
- cleaved PARP positive nuclei fraction [6]: 133%

Compound: Cn1nnc2c(C(N)=O)ncn2c1=O [temozolomide] + COc1ccc(-c2ccc3c(N4CCOCC4)nc(N4C[C@@H](C)O[C@@H](C)C4)nc3n2)cc1CO [KU0063794] (first compound 2 µM, partner dose 0.02 µM)
- cleaved PARP positive nuclei fraction [1]: 133%
- cleaved PARP positive nuclei fraction [2]: 106%
- cleaved PARP positive nuclei fraction [3]: 111%
- cleaved PARP positive nuclei fraction [4]: 67.4%
- cleaved PARP positive nuclei fraction [5]: 85.8%
- cleaved PARP positive nuclei fraction [6]: 198%

Compound: Cn1c(Nc2ccc(C(F)(F)F)cc2)nc2cc(Oc3ccnc(-c4ncc(C(F)(F)F)[nH]4)c3)ccc21 + O=C(CCCCCCC(=O)Nc1ccccc1)NO [vorinostat] (first compound 0.08 µM, partner dose 0.08 µM)
- cleaved PARP positive nuclei fraction [1]: 831%
- cleaved PARP positive nuclei fraction [2]: 171%
- cleaved PARP positive nuclei fraction [3]: 122%
- cleaved PARP positive nuclei fraction [4]: 109%
- cleaved PARP positive nuclei fraction [5]: 177%
- cleaved PARP positive nuclei fraction [6]: 91.1%

Compound: CC1(C)NC(=O)N(c2ccc([N+](=O)[O-])c(C(F)(F)F)c2)C1=O [nilutamide] + O=C(Nc1cccc(Cl)c1)Nc1ncc(CCNc2ncnc3ccsc23)s1 [SNS314] (first compound 1 µM, partner dose 0.0008 µM)
- cleaved PARP positive nuclei fraction [1]: 413%
- cleaved PARP positive nuclei fraction [2]: 186%
- cleaved PARP positive nuclei fraction [3]: 104%
- cleaved PARP positive nuclei fraction [4]: 50.9%
- cleaved PARP positive nuclei fraction [5]: 59.6%
- cleaved PARP positive nuclei fraction [6]: 48.4%
